Data from publication PMC4158885.
A weaker result is weaker than the reference pair of the same experiment. Where a protein sequence is shown, tags need not be part of it.

Target: T1, scPan3 zinc finger (Saccharomyces cerevisiae) (UniProt P36102)
T1 sequence (looked up): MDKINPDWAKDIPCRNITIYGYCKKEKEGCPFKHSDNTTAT
Test: NMR chemical shift perturbation
Conditions: Zn2+, small changes; NMR: 150 uM protein, 150 uM RNA (HSQC); recombinant protein; residues 1-41; protein details: lipoyl domain/His fusion removed by TEV

GGGGGGGGGGGGGGG [G15 RNA (NMR)]
binding result: binds more weakly
